# Measurements published in patent publication US20120178158A1, “ADULT ANIMALS GENERATED FROM INDUCED PLURIPOTENT CELLS” (The Scripps Research Institute, priority 2009, published 2012).
# At least one structure is not confirmed: it was looked up by name or label, or the drawing left a doubt.
# System: mouse embryonic fibroblasts (MEFs)
# Assay: Dox-inducible lentiviral reprogramming of fibroblasts to iPSC colonies
# Assay type: cell-based
# Conditions: Pcdh21/Cre-Z/EG fibroblasts (iMZ); dox 10 μg/ml, VPA 1.9 mM
# Text: We reasoned that inappropriate expression of reprogramming genes during development could inhibit embryonic and postnatal development. Therefore, we designed a drug-inducible lentiviral reprogramming strategy to achieve tight control of transgene expression in iPSCs and their derivatives (FIG. 1b)^19. The four original reprogramming factors (Oct4, Sox2, Klf4 and cMyc) were placed under control of the tetO promoter, which is activated by the reverse tetracycline transactivator (rtTA) protein in the presence of the tetracycline analog doxycycline (dox). We used an enhanced version of the rtTA transcriptional activator protein (rtTAM2.2) that induces higher gene expression levels than the rtTAM2 protein^20. To promote complete reprogramming and facilitate isolation of fully reprogrammed iPSCs we exposed MEFs to the histone deacetylase inhibitor valproic acid (VPA), which has been reported to enhance reprogramming efficiency^21 and to select against incompletely reprogrammed cells by inhibiting cell division^22 (Supplementary methods).
# Generation of iPSCs. Mouse embryonic fibroblasts (MEFs) were prepared from Pcdh21/Cre-Z/EG (iMZ lines) or Nex/Cre-Z/EG (iNZ lines) E13.5 embryos. Generation of iMZ lines: After 24 hours in culture, individual wells of ˜300,000 MEFs were transduced with lentiviruses (day 1) and split 1:2 (day 2) and 1:3 (day 3) to generate 6 wells of transduced MEFs. […]
smiles,measurement,value
"C[C@H]1c2cccc(O)c2C(=O)C2=C(O)[C@]3(O)C(=O)C(C(N)=O)=C(O)[C@@H](N(C)C)[C@@H]3[C@@H](O)[C@@H]21 [dox, doxycycline]",days of dox induction until colonies resulted,seven
